Among the data in PubChem BioAssay AID248 (DTP/NCI, 2004) are survivor count and T/C values, retold here.

The test concerns L1210 leukemia ip in BDF1 mice, survival T/C. Nature of the test: NCI In Vivo Anticancer Drug Screen. Data for tumor model L1210 Leukemia (intraperitoneal) in B6D2F1 (BDF1) mice. The settings on record: T/C endpoint: mean survival time, higher T/C = longer survival.
Setting [1] is: dose: 400.0 mg/kg/injection, schedule: Q01DX001 (ip), vehicle: saline.
Setting [2] is: dose: 100.0 mg/kg/injection, schedule: Q01DX009 (ip), vehicle: saline.
[3] abbreviates: dose: 200.0 mg/kg/injection, schedule: Q01DX009 (ip), vehicle: saline.
The mark [4] stands for this setting: dose: 400.0 mg/kg/injection, schedule: Q04DX003 (ip), vehicle: saline.
The mark [5] stands for this setting: dose: 400.0 mg/kg/injection, schedule: Q01DX001 (ip), vehicle: carboxymethylcellulose (CMC).
[6] abbreviates: dose: 400.0 mg/kg/injection, schedule: Q01DX009 (ip), vehicle: Klucel (hydroxypropylcellulose) (HPC).
Where [7] appears, read: dose: 300.0 mg/kg/injection, schedule: Q01DX001 (ip), vehicle: carboxymethylcellulose (CMC).
Setting [8] is: dose: 400.0 mg/kg/injection, schedule: Q04DX003 (ip), vehicle: Klucel (hydroxypropylcellulose) (HPC).

Molecules are shown by their SMILES. The list shows only some results of the screen, not a fair sample: it is rich in T/C values a quarter to a half above the control, in often repeated tests (any T/C) and in doses without a T/C. Other doses and runs of a compound stand elsewhere. T/C is the treated group as % of the vehicle group. Some entries give survivors of the animals treated and no T/C: the source holds a T/C of zero for them, seemingly a mark for toxic or unscored doses. Some doses without a T/C left all or most animals alive at the check, yet need not have been tolerated: the source hardly ever lists a survival T/C far under the control, and the zero likely stands for such cases as well. Survivors were counted at the toxicity check, usually on the fifth day, unless a day is given; later deaths do not show. Schedules are NCI's codes, taken here to give the interval after Q, in days (D) or hours (H), and the number of doses after X. Some doses were run more than once; the values are given in rising order. Some schedule codes hold Z or #, which are not explained here. Where survival is the endpoint, this PubChem deposit counts one and a half times the control or more as active, and values a quarter to a half above the control carry no call in these data; other NCI protocols may use other cut-offs.

Consider `NC(CS/C(Cl)=C/Cl)C(=O)O` (stereo unspecified), for which the survivor count (dose: 40.0 mg/kg/injection, schedule: Q01DX009 (ip), vehicle: saline) was 5 of 6.

For `Nc1ncnc2c1ncn2C1OC(CO)CC1O` (stereo unspecified), the T/C (dose: 150.0 mg/kg/injection, schedule: Q01DX Z (ip), vehicle: carboxymethylcellulose (CMC)) was 132 % of control. Further, the survivor count is, setting by setting: (dose: 600.0 mg/kg/injection, schedule: Q01DX Z (ip), vehicle: carboxymethylcellulose (CMC)) 3 of 6; (dose: 1200.0 mg/kg/injection, schedule: Q01DX Z (ip), vehicle: carboxymethylcellulose (CMC)) 0 of 6.

With `Cc1cc(Cl)nc2c1ccn2C1OC(CO)C(O)C1O` (stereo unspecified), the survivor count is reported as 3 of 3 (dose: 50.0 mg/kg/injection, schedule: Q01DX005 (ip), vehicle: other); 2 of 3 (dose: 100.0 mg/kg/injection, schedule: Q01DX005 (ip), vehicle: other); 3 of 3 (dose: 200.0 mg/kg/injection, schedule: Q01DX005 (ip), vehicle: other).

For `CS(=O)(=O)c1nnc(-c2ccc(Cl)c(Cl)c2)s1`, the survivor count (dose: 300.0 mg/kg/injection, schedule: Q04DX003 (ip), vehicle: saline) is given as 0 of 6.

Regarding `Cc1cccc(C(C#N)c2ccc(N)cc2)c1` (stereo unspecified), under setting [1], the survivor count is listed as 1 of 4.

`C=CCN(CC=C)CC=C`: the survivor count runs as follows: under setting [2], 6 of 6; under setting [3], 2 of 6; (dose: 400.0 mg/kg/injection, schedule: Q01DX009 (ip), vehicle: saline) 0 of 6.

Regarding `Nc1ncnc2c1ncn2CCCCl`, the survivor count under setting [4] is reported as 0 of 6.

Turning to `[CH3][Sn]([CH3])([Br])[CH2]CCCBr`, the survivor count is 0 of 3 (dose: 50.0 mg/kg/injection, schedule: Q01DX009 (ip), vehicle: saline); 0 of 3 under setting [2]; 0 of 3 under setting [3].

Regarding `Cc1ccc(C)c(CCO)c1`, the survivor count (dose: 400.0 mg/kg/injection, schedule: Q04DX003 (ip), vehicle: saline with Tween-80) was 2 of 6.

Regarding `Cc1cc(N=CN(C)C)c2ccccc2n1`, the survivor count (dose: 100.0 mg/kg/injection, schedule: Q01DX001 (ip), vehicle: saline with Tween-80) is 1 of 6 and 3 of 6; the survivor count (dose: 200.0 mg/kg/injection, schedule: Q01DX001 (ip), vehicle: saline with Tween-80) is reported as 0 of 6; the survivor count (dose: 200.0 mg/kg/injection, schedule: Q04DX003 (ip), vehicle: saline with Tween-80) was 0 of 6; the survivor count (dose: 400.0 mg/kg/injection, schedule: Q01DX001 (ip), vehicle: saline with Tween-80) was 0 of 6.

With `COC1C(O)C(C)OC(OC2C(Oc3cccc4c(O)c5c(=O)oc6ccc(C)c7c(=O)oc(c34)c5c67)OC(C)C(O)C2O)C1O` (stereo unspecified), the T/C by setting is: (dose: 10.0 mg/kg/injection, schedule: Q01DX009 (ip), vehicle: saline with Tween-80) 145 % of control; (dose: 12.5 mg/kg/injection, schedule: Q01DX009 (ip), vehicle: saline with Tween-80) 134 % of control; (dose: 25.0 mg/kg/injection, schedule: Q01DX009 (ip), vehicle: saline with Tween-80) 139 % of control; (dose: 40.0 mg/kg/injection, schedule: Q01DX009 (ip), vehicle: saline with Tween-80) 136 % of control; (dose: 50.0 mg/kg/injection, schedule: Q01DX009 (ip), vehicle: saline with Tween-80) 128 % of control; (dose: 80.0 mg/kg/injection, schedule: Q01DX009 (ip), vehicle: saline with Tween-80) 133 % of control. The survivor count reads like this: (dose: 100.0 mg/kg/injection, schedule: Q01DX009 (ip), vehicle: carboxymethylcellulose (CMC)) 2 of 6; (dose: 200.0 mg/kg/injection, schedule: Q01DX009 (ip), vehicle: carboxymethylcellulose (CMC)) 0 of 6.

Take `O=C(NCCCCCCCCNC(=O)N1CC1)N1CC1`: the T/C (dose: 0.66 mg/kg/injection, schedule: Q01DX009 (ip), vehicle: carboxymethylcellulose (CMC)) was 133 % of control. In addition, the survivor count is, setting by setting: (dose: 12.5 mg/kg/injection, schedule: Q01DX001 (ip), vehicle: carboxymethylcellulose (CMC)) 1 of 4; (dose: 25.0 mg/kg/injection, schedule: Q01DX001 (ip), vehicle: carboxymethylcellulose (CMC)) 1 of 4; (dose: 100.0 mg/kg/injection, schedule: Q01DX001 (ip), vehicle: carboxymethylcellulose (CMC)) 0 of 4; (dose: 200.0 mg/kg/injection, schedule: Q01DX001 (ip), vehicle: carboxymethylcellulose (CMC)) 0 of 4; under setting [5], 0 of 4.

For the compound `COc1ccc(NC(=O)c2c(Br)c(Br)c(Br)c(Br)c2C(=O)O)c(Cl)c1`, the survivor count under setting [6] was 2 of 6.

Take `C[N+]1(CCCl)CC[N+](C)(CCCl)CC1` (stereo unspecified): the T/C (dose: 400.0 mg/kg/injection, schedule: Q04DX002 (ip), vehicle: saline) was 129 % of control.

On to `COC(=O)NCc1nc2cc3c[nH][nH]c3cc2n1`, for which the survivor count is 6 of 6 (dose: 150.0 mg/kg/injection, schedule: Q01DX001 (ip), vehicle: carboxymethylcellulose (CMC)) and 0 of 6 under setting [7].

On to `CCn1c2ccccc2c2cc(NC(=O)N(CCCl)N=O)ccc21`, for which the T/C (dose: 177.0 mg/kg/injection, schedule: Q01DX001 (ip), vehicle: carboxymethylcellulose (CMC)) was 130 % of control; the T/C (dose: 266.0 mg/kg/injection, schedule: Q01DX001 (ip), vehicle: carboxymethylcellulose (CMC)) is 135 % of control; the T/C under setting [5] was 135 % of control; the T/C (dose: 400.0 mg/kg/injection, schedule: Q01DX009 (ip), vehicle: carboxymethylcellulose (CMC)) was 137 % of control; the T/C (dose: 600.0 mg/kg/injection, schedule: Q01DX001 (ip), vehicle: carboxymethylcellulose (CMC)) was 133 % of control; the T/C (dose: 600.0 mg/kg/injection, schedule: Q01DX009 (ip), vehicle: carboxymethylcellulose (CMC)) was 127 % of control.

Regarding `CCOC(=O)c1ccccn1`, the survivor count under setting [1] is listed as 0 of 4.

On to `COC1=NC2(C)C3C=CC(C4C(=O)N(c5ccccc5)C(=O)C43)C12C` (stereo unspecified), for which the survivor count is recorded as 0 of 3 (dose: 75.0 mg/kg/injection, schedule: Q04DX002 (ip), vehicle: gum acacia); 0 of 3 (dose: 150.0 mg/kg/injection, schedule: Q04DX002 (ip), vehicle: gum acacia); 0 of 3 (dose: 300.0 mg/kg/injection, schedule: Q04DX002 (ip), vehicle: gum acacia).

For `CCc1ccc(NC(=O)NC(C)C)cc1`, the survivor count under setting [8] is 4 of 6.

`O=C(O)c1ccc(-c2ccc(C(=O)O)cc2I)c(I)c1`: where the note is “dose: 400.0 mg/kg/injection, schedule: Q01DX009 (ip), vehicle: saline with Tween-80”, the survivor count is 6 of 6.

As for `N#CSCc1ccccc1`, under setting [7], the survivor count was 1 of 6.

On to `O=C(O)C(Cc1ccccc1)C(=O)O.[NH2-].[NH2-].[Pt+2]`, for which, under setting [8], the survivor count is 6 of 10.

Take `CC1CCCC(C[N+](C)(C)C)C1=O` (stereo unspecified): under setting [4], the survivor count was 3 of 6.

Regarding `O=C(O)CCC(=O)c1cccc([N+](=O)[O-])c1`, the survivor count under setting [6] is listed as 6 of 6.

As for `Clc1ccc(C2=NCCN2)cc1`, the survivor count (dose: 75.0 mg/kg/injection, schedule: Q01DX001 (ip), vehicle: other) was 3 of 6; the survivor count (dose: 150.0 mg/kg/injection, schedule: Q01DX001 (ip), vehicle: other) is 0 of 6; the survivor count (dose: 300.0 mg/kg/injection, schedule: Q01DX001 (ip), vehicle: other) is given as 0 of 6.

`CCCCN(CCCC)CC(O)c1cc(Cl)cc2cccnc12` (stereo unspecified): the survivor count by setting is: (dose: 100.0 mg/kg/injection, schedule: Q01DX001 (ip), vehicle: Klucel (hydroxypropylcellulose) (HPC)) 3 of 6; (dose: 200.0 mg/kg/injection, schedule: Q01DX001 (ip), vehicle: Klucel (hydroxypropylcellulose) (HPC)) 1 of 6; (dose: 400.0 mg/kg/injection, schedule: Q01DX001 (ip), vehicle: Klucel (hydroxypropylcellulose) (HPC)) 1 of 6.
